The list is a part of this screen's results and no random one: it gathers tests that were run many times, whatever their T/C, doses with no T/C, and many T/C values between a quarter and a half above the control. Other doses and runs of a compound stand elsewhere. T/C is the treated group as % of the vehicle group. Some entries give survivors of the animals treated and no T/C: the source holds a T/C of zero for them, seemingly a mark for toxic or unscored doses. Some survivor counts are full or nearly so, which does not show that the dose was tolerated: survival well below the control is almost never listed, so the zero probably covers shortened survival too. Counts of survivors are from the toxicity check (mostly the fifth day) where no day follows; animals may have died later. Schedule codes are those of the source, read here as Q, the interval in days (D) or hours (H), X, the number of doses. Some structures stand for samples that the source files as different forms (salt, stereo form or complex); doses refer to the form tested. Some doses were run more than once; the results are listed from low to high. Additions like (4×) give the number of equal values in this list. For survival time, this PubChem deposit counts one and a half times the control or more as active, and values a quarter to a half above the control carry no call in these data; other NCI protocols may use other cut-offs. Some T/C values carry the count of animals alive at the toxicity check (mostly the fifth day); without a count, all were alive then.
System: P388 leukemia ip, CD2F1 mice, survival T/C
Assay: NCI In Vivo Anticancer Drug Screen. Data for tumor model P388 Leukemia (intraperitoneal) in CD2F1 (CDF1) mice
Conditions: T/C endpoint: median survival time, higher T/C = longer survival
[1] = dose: 120.0 mg/kg/injection, schedule: Q01DX005 (iv), vehicle: water
[2] = dose: 200.0 mg/kg/injection, schedule: Q01DX009 (ip), vehicle: distilled water + Tween-80
[3] = dose: 400.0 mg/kg/injection, schedule: Q01DX009 (ip), vehicle: saline

**Q.** Which results are given for `ClCC[N+]12CC[N+](CCCl)(CC1)C2`?
**A.** T/C (dose: 100.0 mg/kg/injection, schedule: Q04DX003 (ip), vehicle: saline with Tween-80): 130 and 136 % of control; T/C (dose: 120.0 mg/kg/injection, schedule: Q01DX001 (ip), vehicle: water): 130 % of control; T/C (dose: 120.0 mg/kg/injection, schedule: Q01DX001 (iv), vehicle: water): 130 % of control; T/C (dose: 120.0 mg/kg/injection, schedule: Q01DX005 (iv), vehicle: clinical formulation): 130 and 135 % of control; T/C [1]: 132, 138, 145 % of control; survivor count [1]: 0 of 10 and 4 of 10; T/C (dose: 120.0 mg/kg/injection, schedule: Q01DX005 (oral), vehicle: water): 133 % of control; T/C (dose: 120.0 mg/kg/injection, schedule: Q01DX009 (ip), vehicle: clinical formulation): 129 % of control; survivor count (dose: 120.0 mg/kg/injection, schedule: Q01DX009 (ip), vehicle: water): 0 of 10; T/C (dose: 120.0 mg/kg/injection, schedule: Q01DX009 (oral), vehicle: water): 134 % of control; T/C (dose: 160.0 mg/kg/injection, schedule: Q01DX005 (ip), vehicle: water): 144 % of control [6 of 8 alive]; survivor count (dose: 160.0 mg/kg/injection, schedule: Q01DX009 (ip), vehicle: clinical formulation): 6 of 10; T/C (dose: 180.0 mg/kg/injection, schedule: Q01DX005 (iv), vehicle: clinical formulation): 140 % of control [9 of 10 alive]; T/C (dose: 180.0 mg/kg/injection, schedule: Q01DX005 (iv), vehicle: water): 138 [8 of 10 alive] and 146 % of control; survivor count (dose: 200.0 mg/kg/injection, schedule: Q01DX005 (ip), vehicle: water): 1 of 8; T/C [2]: 104 % of control; survivor count [2]: 1 of 6 and 6 of 6; survivor count (dose: 200.0 mg/kg/injection, schedule: Q01DX009 (ip), vehicle: saline with Tween-80): 6 of 6; survivor count (dose: 200.0 mg/kg/injection, schedule: Q01DX009 (ip), vehicle: saline): 0 of 6 and 6 of 6; T/C (dose: 200.0 mg/kg/injection, schedule: Q01DX009 (ip), vehicle: water, evaluated on day 30): 87 (2×), 94, 145, 225 % of control [5 of 6 alive]; T/C (dose: 200.0 mg/kg/injection, schedule: Q01DX009 (ip), vehicle: water, evaluated on day 40): 236 % of control; survivor count (dose: 200.0 mg/kg/injection, schedule: Q01DX009 (ip), vehicle: water): 0 of 6, 1 of 6 (2×), 3 of 6, 6 of 6 (2×); T/C (dose: 200.0 mg/kg/injection, schedule: Q01DX009 (oral), vehicle: saline with Tween-80): 138 % of control; T/C (dose: 200.0 mg/kg/injection, schedule: Q04DX003 (ip), vehicle: saline with Tween-80): 138 % of control; T/C (dose: 240.0 mg/kg/injection, schedule: Q01DX001 (ip), vehicle: water): 143 % of control [9 of 10 alive]; T/C (dose: 240.0 mg/kg/injection, schedule: Q01DX001 (iv), vehicle: water): 126 % of control [7 of 10 alive]; survivor count (dose: 240.0 mg/kg/injection, schedule: Q01DX005 (ip), vehicle: water): 0 of 10; survivor count (dose: 240.0 mg/kg/injection, schedule: Q01DX005 (iv), vehicle: water): 0 of 10; survivor count (dose: 240.0 mg/kg/injection, schedule: Q01DX009 (ip), vehicle: clinical formulation): 0 of 10 and 4 of 10; survivor count (dose: 240.0 mg/kg/injection, schedule: Q01DX009 (ip), vehicle: water): 0 of 10, 1 of 10 (2×), 2 of 10; T/C (dose: 266.0 mg/kg/injection, schedule: Q01DX001 (ip), vehicle: saline with Tween-80): 145 % of control; survivor count (dose: 400.0 mg/kg/injection, schedule: Q01DX005 (ip), vehicle: water): 0 of 8; survivor count (dose: 400.0 mg/kg/injection, schedule: Q01DX009 (ip), vehicle: distilled water + Tween-80): 0 of 6; survivor count (dose: 400.0 mg/kg/injection, schedule: Q01DX009 (ip), vehicle: saline with Tween-80): 4 of 6; T/C [3]: 134 % of control; survivor count [3]: 0 of 6 and 3 of 6; survivor count (dose: 400.0 mg/kg/injection, schedule: Q01DX009 (ip), vehicle: water): 0 of 6; survivor count (dose: 400.0 mg/kg/injection, schedule: Q01DX009 (oral), vehicle: saline with Tween-80): 6 of 6; T/C (dose: 400.0 mg/kg/injection, schedule: Q04DX003 (ip), vehicle: distilled water + Tween-80): 146 % of control; T/C (dose: 400.0 mg/kg/injection, schedule: Q04DX003 (ip), vehicle: saline with Tween-80): 153, 156, 186, 268 % of control; survivor count (dose: 480.0 mg/kg/injection, schedule: Q01DX001 (ip), vehicle: water): 3 of 10; survivor count (dose: 480.0 mg/kg/injection, schedule: Q01DX001 (iv), vehicle: water): 2 of 10; T/C (dose: 480.0 mg/kg/injection, schedule: Q01DX001 (oral), vehicle: water): 129 % of control; survivor count (dose: 480.0 mg/kg/injection, schedule: Q01DX005 (ip), vehicle: water): 0 of 10; survivor count (dose: 480.0 mg/kg/injection, schedule: Q01DX005 (iv), vehicle: water): 0 of 10; survivor count (dose: 480.0 mg/kg/injection, schedule: Q01DX005 (oral), vehicle: water): 6 of 10; survivor count (dose: 480.0 mg/kg/injection, schedule: Q01DX009 (ip), vehicle: water): 0 of 10; survivor count (dose: 480.0 mg/kg/injection, schedule: Q01DX009 (oral), vehicle: water): 9 of 10; survivor count (dose: 600.0 mg/kg/injection, schedule: Q01DX001 (ip), vehicle: saline with Tween-80): 6 of 6; survivor count (dose: 600.0 mg/kg/injection, schedule: Q04DX003 (ip), vehicle: distilled water + Tween-80): 5 of 6; survivor count (dose: 600.0 mg/kg/injection, schedule: Q04DX003 (ip), vehicle: saline with Tween-80): 6 of 6; survivor count (dose: 800.0 mg/kg/injection, schedule: Q01DX009 (oral), vehicle: saline with Tween-80): 5 of 6; survivor count (dose: 960.0 mg/kg/injection, schedule: Q01DX001 (oral), vehicle: water): 1 of 10

Reference: PubChem BioAssay AID330 (DTP/NCI, 2004)
